Measurements reported in PubChem BioAssay AID602196 (INSERM, 2012)

Test: 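Genes whose knock-down alters cisplatin killing of lung cancer cells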
Cell system: human A549 lung cancer cells
Reagent: siRNA pair against human genes
Duration: 48 h transfection before cisplatin; time from cisplatin to read-out not stated
Challenge: cisplatin at a dose killing half of control-siRNA cells; exact dose and duration not given
Read-out: 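Shift in cisplatin death relative to control siRNA, from -50 (all cells die) to +50 (no cells die); siRNAs harmful on their own scored 0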
Scale: two-siRNA summed score (-2 to +2): higher = both siRNAs protect from cisplatin killing; -2 means both sensitise
Rule for the call: 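Each siRNA scores 0 if harmful alone by LDH or WST-1, otherwise +1 if it reduces and -1 if it increases cisplatin killing; a gene is active when both siRNAs agree (sum +2 or -2)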
Meaning of the calls: active = both siRNAs shift cisplatin killing the same way; inactive = no consistent shift, or siRNA harmful alone
In all, the deposit lists about 23,000 reagents; shown is a random part of them. 455 of them (2%) count as active. 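Active includes both protection and sensitisation; some change values fall well beyond the stated -50 to +50 range.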 Not all columns of the deposit are shown. Reagent sequences are not shown. Not given: the amount of reagent.

The first 2 entries, to show the layout:
{"target gene": "LOC390637", "two-siRNA summed score (-2 to +2)": 0, "outcome": "inactive"}
{"target gene": "PPP2R2A", "two-siRNA summed score (-2 to +2)": -1, "outcome": "inactive"}

Results, from the start:
{"target gene": "LOC390637", "two-siRNA summed score (-2 to +2)": 0, "outcome": "inactive"}
{"target gene": "PPP2R2A", "two-siRNA summed score (-2 to +2)": -1, "outcome": "inactive"}
{"target gene": "MACIR", "two-siRNA summed score (-2 to +2)": 0, "outcome": "inactive"}
{"target gene": "TMED8", "two-siRNA summed score (-2 to +2)": 1, "outcome": "inactive"}
{"target gene": "CACHD1", "two-siRNA summed score (-2 to +2)": 0, "outcome": "inactive"}
{"target gene": "LOC344760", "two-siRNA summed score (-2 to +2)": 0, "outcome": "inactive"}
{"target gene": "LOC391044", "two-siRNA summed score (-2 to +2)": 1, "outcome": "inactive"}
{"target gene": "VDR", "two-siRNA summed score (-2 to +2)": 0, "outcome": "inactive"}
{"target gene": "DHRS11", "two-siRNA summed score (-2 to +2)": 1, "outcome": "inactive"}
{"target gene": "CNOT1", "two-siRNA summed score (-2 to +2)": 0, "outcome": "inactive"}
{"target gene": "CIDEC", "two-siRNA summed score (-2 to +2)": 0, "outcome": "inactive"}
{"target gene": "TMEM196", "two-siRNA summed score (-2 to +2)": -1, "outcome": "inactive"}
